Structures are written as SMILES.

Two compounds from US11844800B2, “Methods and compositions for predicting and preventing relapse of acute lymphoblastic leukemia” (Massachusetts Institute of Technology, priority 2019, dated 2023) can be followed below.

The series relates to BCR-ABL+ B-cell ALL. The series can be described thus: Amplicon-based targeted sequencing for known resistance-associated mutations in pretreatment and relapsed animals. The series is classed as in vivo, mice. The following applies: relapsed animals, by treatment arm.

In the case of `O=C(Nc1ccc(OC(F)(F)Cl)cc1)c1cnc(N2CC[C@@H](O)C2)c(-c2cc[nH]n2)c1` [ABL001, asciminib], the “resistance-associated mutations enriched at relapse” value is “Pathway reactivating mutations (STAT5 pathway, e.g. ABL1, STAT5A) enrich in relapses”.

In the case of `Cc1cn(-c2cc(NC(=O)c3ccc(C)c(Nc4nccc(-c5cccnc5)n4)c3)cc(C(F)(F)F)c2)cn1` [Nilotinib, nilotinib], the “resistance-associated mutations enriched at relapse” value is reported as “follow similar trends as ABL001”.
